{"source": "paper PMC5682278", "biological_target": "VACV D4 (uracil-DNA glycosylase), His-tagged (vaccinia virus (VACV)) (UniProt P20536)", "assay": "co-purification (nickel column, gel filtration)", "note": "These are yes or no findings as the source states them, for the method shown. Some entries that bind do so weakly or less than the wild type."}
{"substance": "VACV A20, full length, wild type (from UniProt P20995 1-426)", "values": [{"measurement": "binding", "result": "binds"}]}
